In PMC5473137, “Structure of a SMG8–SMG9 complex identifies a G-domain heterodimer in the NMD effector proteins” (RNA, 2017):
Positions count from the first letter of the chain named. These are yes or no findings as the source states them, for the method shown. In cells and extracts the contact can be indirect. Some entries that bind do so weakly or less than the wild type. Tags and fused reporters may be left off the sequences shown.

Key:
[1] = molecular target: T1, human full-length Flag-HA-tagged hSMG9 M390R, Y515R (human) (UniProt Q9H0W8); experiment: co-IP; HA-hSMG8 and Flag-HA-hSMG9 transiently coexpressed in HEK293T; lysate in 50 mM Tris pH 7.4, 150 mM NaCl; Anti-Flag M2 beads 1 h at 4°C; washes with 300 mM NaCl; flag peptide elution; anti-HA Western blot
T1 sequence: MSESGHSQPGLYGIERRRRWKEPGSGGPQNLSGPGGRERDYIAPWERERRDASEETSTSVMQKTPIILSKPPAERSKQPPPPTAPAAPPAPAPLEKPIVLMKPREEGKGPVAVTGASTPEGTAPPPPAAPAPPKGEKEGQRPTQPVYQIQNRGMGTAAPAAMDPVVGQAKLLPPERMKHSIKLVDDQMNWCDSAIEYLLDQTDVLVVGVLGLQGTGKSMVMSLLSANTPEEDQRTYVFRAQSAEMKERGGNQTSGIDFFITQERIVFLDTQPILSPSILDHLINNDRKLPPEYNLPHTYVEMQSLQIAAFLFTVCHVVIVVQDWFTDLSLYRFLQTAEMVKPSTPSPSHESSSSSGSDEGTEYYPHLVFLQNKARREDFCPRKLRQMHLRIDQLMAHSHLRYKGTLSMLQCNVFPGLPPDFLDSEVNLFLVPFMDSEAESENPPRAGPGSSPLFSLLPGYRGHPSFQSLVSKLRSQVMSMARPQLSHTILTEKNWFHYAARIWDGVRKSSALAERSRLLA

[2] = molecular target: T2, human full-length Flag-HA-tagged hSMG9, wild-type (human) (UniProt Q9H0W8); experiment: as above
T2 sequence: T1 sequence with R390M, R515Y

binding [1]: binds weakly
binding [2]: binds
B1: human full-length HA-tagged hSMG8 (protein, UniProt Q8ND04 1-991)
chain: MAGPVSLRDLLMGASAWMGSESPGGSPTEGGGSAAGGPEPPWREDEICVVGIFGKTALRLNSEKFSLVNTVCDRQVFPLFRHQDPGDPGPGIRTEAGAVGEAGGAEDPGAAAGGSVRGSGAVAEGNRTEAGSQDYSLLQAYYSQESKVLYLLLTSICDNSQLLRACRALQSGEAGGGLSLPHAEAHEFWKHQEKLQCLSLLYLFSVCHILLLVHPTCSFDITYDRVFRALDGLRQKVLPLLKTAIKDCPVGKDWKLNCRPCPPRLLFLFQLNGALKVEPPRNQDPAHPDKPKKHSPKRRLQHALEDQIYRIFRKSRVLTNQSINCLFTVPANQAFVYIVPGSQEEDPVGMLLDQLRSHCTVKDPESLLVPAPLSGPRRYQVMRQHSRQQLSFHIDSSSSSSSGQLVDFTLREFLWQHVELVLSKKGFDDSVGRNPQPSHFELPTYQKWISAASKLYEVAIDGKEEDLGSPTGELTSKILSSIKVLEGFLDIDTKFSENRCQKALPMAHSAYQSNLPHNYTMTVHKNQLAQALRVYSQHARGPAFHKYAMQLHEDCYKFWSNGHQLCEERSLTDQHCVHKFHSLPKSGEKPEADRNPPVLYHNSRARSTGACNCGRKQAPRDDPFDIKAANYDFYQLLEEKCCGKLDHINFPVFEPSTPDPAPAKNESSPAPPDSDADKLKEKEPQTQGESTSLSLALSLGQSTDSLGTYPADPQAGGDNPEVHGQVEVKTEKRPNFVDRQASTVEYLPGMLHSNCPKGLLPKFSSWSLVKLGPAKSYNFHTGLDQQGFIPGTNYLMPWDIVIRTRAEDEGDLDTNSWPAPNKAIPGKRSAVVMGRGRRRDDIARAFVGFEYEDSRGRRFMCSGPDKVMKVMGSGPKESALKALNSDMPLYILSSSQGRGLKPHYAQLMRLFVVVPDAPLQIILMPQVQPGPPPCPVFYPEKQEITLPPDGLWVLRFPYAYVTERGPCFPPKENVQLMSYKVLRGVLKAVTQ
